The values that follow come from article PMC6981130.

Amino acid sequences for entries named in this document (tags omitted). Residues count along the entry.
UniProt Q9Y570: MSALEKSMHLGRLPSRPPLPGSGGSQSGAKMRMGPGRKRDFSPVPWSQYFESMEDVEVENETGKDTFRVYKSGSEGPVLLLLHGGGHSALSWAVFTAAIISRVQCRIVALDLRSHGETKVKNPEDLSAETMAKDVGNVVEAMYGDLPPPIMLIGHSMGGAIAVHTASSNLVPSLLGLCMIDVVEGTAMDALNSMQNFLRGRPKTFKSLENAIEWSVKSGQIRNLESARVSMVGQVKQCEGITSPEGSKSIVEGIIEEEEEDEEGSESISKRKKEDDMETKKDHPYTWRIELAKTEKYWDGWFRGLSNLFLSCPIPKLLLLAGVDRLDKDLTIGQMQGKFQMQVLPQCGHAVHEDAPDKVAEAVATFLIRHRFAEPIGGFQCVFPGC
UniProt P11021, residues 19-654: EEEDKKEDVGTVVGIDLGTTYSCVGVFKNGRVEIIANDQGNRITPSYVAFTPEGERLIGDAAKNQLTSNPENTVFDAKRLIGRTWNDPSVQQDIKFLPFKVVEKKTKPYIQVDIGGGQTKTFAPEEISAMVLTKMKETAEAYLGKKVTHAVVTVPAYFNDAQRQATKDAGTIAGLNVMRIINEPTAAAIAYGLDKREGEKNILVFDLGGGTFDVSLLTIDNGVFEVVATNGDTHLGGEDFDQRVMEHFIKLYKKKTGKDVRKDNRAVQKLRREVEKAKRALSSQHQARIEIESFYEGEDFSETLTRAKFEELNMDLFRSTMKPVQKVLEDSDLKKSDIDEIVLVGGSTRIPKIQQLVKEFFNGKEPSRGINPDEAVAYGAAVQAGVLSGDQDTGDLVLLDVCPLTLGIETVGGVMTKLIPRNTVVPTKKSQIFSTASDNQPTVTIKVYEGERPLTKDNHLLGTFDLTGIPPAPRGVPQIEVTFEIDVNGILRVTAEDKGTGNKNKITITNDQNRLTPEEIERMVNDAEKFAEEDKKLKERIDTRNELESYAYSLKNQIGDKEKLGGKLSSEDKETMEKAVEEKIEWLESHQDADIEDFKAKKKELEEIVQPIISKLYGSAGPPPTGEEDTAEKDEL

Substitutions are numbered along the chain they refer to. No constants are given. Whether binding was seen depends on the method and setting. In cells and extracts the contact can be indirect. Here binding means that the protein was enriched with, or labelled near, the bait; the list need not be complete. No binding means not detected with the bait. For part of these data: Sequences can lack the tags named with a protein.

Test [1] concerns the target T1, FICD wild type, his tag labelled (human) (UniProt Q9BVA6).
T1 sequence: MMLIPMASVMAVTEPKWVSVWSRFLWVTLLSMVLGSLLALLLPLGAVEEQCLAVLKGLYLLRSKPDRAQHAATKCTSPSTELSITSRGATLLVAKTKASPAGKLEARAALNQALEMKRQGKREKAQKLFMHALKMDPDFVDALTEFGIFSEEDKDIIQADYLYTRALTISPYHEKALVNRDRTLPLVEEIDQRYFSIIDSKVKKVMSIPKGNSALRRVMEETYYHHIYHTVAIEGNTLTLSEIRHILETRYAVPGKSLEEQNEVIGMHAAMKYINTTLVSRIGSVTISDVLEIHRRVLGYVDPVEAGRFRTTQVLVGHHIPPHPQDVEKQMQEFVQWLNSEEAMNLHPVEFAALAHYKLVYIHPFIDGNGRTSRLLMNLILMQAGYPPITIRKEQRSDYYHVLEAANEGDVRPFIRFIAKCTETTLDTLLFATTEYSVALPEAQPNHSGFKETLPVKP
Description: affinity purification with mass spectrometry; pull-down of his tag labelled FICD (wt, and in parallel E234G) in the presence of the chemical cross-linker DSSO, called in situ; LC-MS/MS, volcano plot FDR 0.01, s0 1.5, n = 3.

Test [2] has as its target T2, FICD E234G mutant (human) (UniProt Q9BVA6).
T2 sequence: T1 sequence with E234G
The test is described as above.

In the case of PPME1 (from UniProt Q9Y570 1-386), the binding entry in test [1] and in test [2] was “no binding” throughout.
For the molecule HSPA5 (from UniProt P11021 19-654), the binding entry in test [1] and in test [2] was “binds” throughout.

B1: ATP-dependent 6-phosphofructokinase (PFKP) (protein, UniProt Q01813 1-784)
chain: MDADDSRAPKGSLRKFLEHLSGAGKAIGVLTSGGDAQGMNAAVRAVVRMGIYVGAKVYFIYEGYQGMVDGGSNIAEADWESVSSILQVGGTIIGSARCQAFRTREGRLKAACNLLQRGITNLCVIGGDGSLTGANLFRKEWSGLLEELARNGQIDKEAVQKYAYLNVVGMVGSIDNDFCGTDMTIGTDSALHRIIEVVDAIMTTAQSHQRTFVLEVMGRHCGYLALVSALACGADWVFLPESPPEEGWEEQMCVKLSENRARKKRLNIIIVAEGAIDTQNKPITSEKIKELVVTQLGYDTRVTILGHVQRGGTPSAFDRILASRMGVEAVIALLEATPDTPACVVSLNGNHAVRLPLMECVQMTQDVQKAMDERRFQDAVRLRGRSFAGNLNTYKRLAIKLPDDQIPKTNCNVAVINVGAPAAGMNAAVRSAVRVGIADGHRMLAIYDGFDGFAKGQIKEIGWTDVGGWTGQGGSILGTKRVLPGKYLEEIATQMRTHSINALLIIGGFEAYLGLLELSAAREKHEEFCVPMVMVPATVSNNVPGSDFSIGADTALNTITDTCDRIKQSASGTKRRVFIIETMGGYCGYLANMGGLAAGADAAYIFEEPFDIRDLQSNVEHLTEKMKTTIQRGLVLRNESCSENYTTDFIYQLYSEEGKGVFDCRKNVLGHMQQGGAPSPFDRNFGTKISARAMEWITAKLKEARGRGKKFTTDDSICVLGISKRNVIFQPVAELKKQTDFEHRIPKEQWWLKLRPLMKILAKYKASYDVSDSGQLEHVQPWSV
On to B1, for which the binding result in test [1] and in test [2] was “no binding” each time.
